The source of these data is article PMC10547168, “Cell cycle-dependent organization of a bacterial centromere through multi-layered regulation of the ParABS system” (PLOS Genetics, 2023).

Results are given in words; binding and its absence hold for the method and conditions named. Binding calls can cover weak binding; strength is not graded here. Sequences can lack the tags named with a protein.

For this experiment, the target named is T1, ParBBb-msfGFP-H3H4 (bait of the POLAR assay) (Bdellovibrio bacteriovorus) (UniProt Q6MGM0).
T1 sequence: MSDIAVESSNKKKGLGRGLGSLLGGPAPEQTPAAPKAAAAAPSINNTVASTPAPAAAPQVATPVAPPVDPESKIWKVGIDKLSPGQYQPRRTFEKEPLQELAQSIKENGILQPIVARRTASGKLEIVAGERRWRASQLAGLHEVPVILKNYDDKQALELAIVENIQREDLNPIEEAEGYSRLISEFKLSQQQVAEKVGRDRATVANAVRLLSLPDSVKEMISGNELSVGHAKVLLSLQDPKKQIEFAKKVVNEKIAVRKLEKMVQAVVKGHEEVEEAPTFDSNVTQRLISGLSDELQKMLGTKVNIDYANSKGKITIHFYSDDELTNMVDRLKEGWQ
In words: PopZ-linked apical recruitment (POLAR) assay; E. coli TB28; bait fused to msfGFP-H3H4 and drawn to PopZCc clusters, prey fused to mScarlet; 100 μM IPTG (prey) with or without 0.2% arabinose (PopZCc and bait), 2 h at 37°C; fluorescence snapshots.

As to “ParABb-mScarlet (prey of the POLAR assay) (Bdellovibrio bacteriovorus)”, the binding entry was “binds”.
